Assays:
[1] = system: 293T cells transfected with NK1R; assay: SP-induced, NK1R-mediated cell death in 293T cells transfected with NK1R, trypan blue and staining; format: cell-based, human
Protocol: Human embryonic kidney 293T cells were grown as described in Example I. Transient transfection was performed using Superfect (Qiagen) as described by the manufacturer. Briefly, 2×10^5 cells/well were seeded into 35 mm wells 16 hr prior to transfection. Superfect:DNA complexes were added at a 5 μl:2 μg ratio for 3 hr; then the medium was replaced and after 24 hr SP was added. At 24–48 hr after addition of SP cell death was quantified as follows: the media containing floating cells were collected and centrifuged 10 min at 2000×g, the pellet was resuspended in PBS/trypan blue and the cells were counted using a hematocytometer. When other compounds were used, they were added at the same time as SP: zVAD.fmk or BAF was added at 50 μM and obtained from Enzyme System Products, Livermore, Calif. […]
(§1) The protein kinase inhibitors were added 30 min before SP exposure at the following concentrations: 10 μM Rp-8-Br-cAMPS (adenosin 3′,5′-cyclic monophosphorothioate, 8-bromo-, Rp-isomer, sodium salt) which is a PKA inhibitor; 50 nM Calphostin C, which is a PKC inhibitor; 10 μM PD 98059 which is a MAPKK (MEK) inhibitor. […] Viability was quantified by trypan blue staining of the total cell population.

[2] = system: striatal, cortical, and hippocampal neurons; assay: SP-induced cell death in primary striatal, cortical and hippocampal neurons, trypan blue viability and staining; format: cell-based, rat; conditions: cells undergoing SP-induced cell death
Protocol: Rat neuronal primary cell cultures were also used to assay for inducers and inhibitors of paraptosis. Briefly, primary striatal, cortical and hippocampal cultures were prepared from 17-day-old Sprague-Dawley rat embryos (B&K). The tissue was dissected, minced and trypsinized for five minutes using 0.25% trypsin (Cell Grow). After the addition of 10% horse serum (Life Technologies) to inhibit the trypsin, the cell suspension was triturated 15–20 times with a 10 ml syringe and centrifuged for five minutes at 800×g. The pellet was resuspended in MEM-PAK (UCSF Cell Culture facility), supplemented with 2.02 gm glucose, 2 mM GLUTAMAX™ (Life Technologies) and penicillin/streptomycin (100 U/ml). […]
Primary neuronal cells were prepared as described in Example I. SP (SIGMA) at a concentration of 0.1 nM–100 μM was added 24–48 hrs after seeding, in the presence of 2.5% horse serum. […] Viability was quantified by trypan blue staining of the total cell population. […]
as §1

SP: eleven amino acid neurotransmitter of the tachykinin family, ligand of NK1R
TUNEL staining for DNA fragmentation ([1]; NK1R-mediated cell death): negative | Annexin-V staining ([1]; NK1R-mediated death of 293T cells): negative | nuclear fragmentation, DAPI staining [2]: no nuclear fragmentation | phosphatidylserine flipping, annexin-V staining [2]: no evidence for phosphatidylserine flipping

Reference: US6994981B2, “Modulators of paraptosis and related methods” (The Buck Institute, priority 2002, dated 2006)
